Drawing on PMC5898266, this text covers binding for five molecules.

The chains behind the UniProt entries cited, without tags or fusion partners.
UniProt O60506: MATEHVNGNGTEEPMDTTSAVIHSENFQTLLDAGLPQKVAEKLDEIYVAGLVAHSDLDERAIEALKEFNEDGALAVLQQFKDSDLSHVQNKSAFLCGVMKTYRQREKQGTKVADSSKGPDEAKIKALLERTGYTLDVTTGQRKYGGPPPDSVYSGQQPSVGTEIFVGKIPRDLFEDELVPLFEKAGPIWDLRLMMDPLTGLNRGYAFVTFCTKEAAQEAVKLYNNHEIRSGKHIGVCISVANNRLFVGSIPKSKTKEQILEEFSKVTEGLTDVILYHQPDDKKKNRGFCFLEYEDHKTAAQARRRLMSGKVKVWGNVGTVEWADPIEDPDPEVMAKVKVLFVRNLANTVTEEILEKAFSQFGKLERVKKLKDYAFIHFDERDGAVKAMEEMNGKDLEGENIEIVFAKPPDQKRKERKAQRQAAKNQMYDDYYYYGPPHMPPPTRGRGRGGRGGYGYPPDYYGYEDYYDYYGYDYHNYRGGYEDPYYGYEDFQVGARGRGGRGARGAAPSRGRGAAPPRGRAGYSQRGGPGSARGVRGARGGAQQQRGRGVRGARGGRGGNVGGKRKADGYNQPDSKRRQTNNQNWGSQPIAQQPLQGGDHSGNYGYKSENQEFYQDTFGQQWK

Results are given in words; binding and its absence hold for the method and conditions named. In cells and extracts the contact can be indirect. A yes stands for co-enrichment or nearness to the bait. Other partners may have been found. Tags and fused reporters may be left off the sequences shown.

The target in the assay is T1, Flag-tagged human ZFP36L2 (wild type) (human) (UniProt P47974).
T1 sequence: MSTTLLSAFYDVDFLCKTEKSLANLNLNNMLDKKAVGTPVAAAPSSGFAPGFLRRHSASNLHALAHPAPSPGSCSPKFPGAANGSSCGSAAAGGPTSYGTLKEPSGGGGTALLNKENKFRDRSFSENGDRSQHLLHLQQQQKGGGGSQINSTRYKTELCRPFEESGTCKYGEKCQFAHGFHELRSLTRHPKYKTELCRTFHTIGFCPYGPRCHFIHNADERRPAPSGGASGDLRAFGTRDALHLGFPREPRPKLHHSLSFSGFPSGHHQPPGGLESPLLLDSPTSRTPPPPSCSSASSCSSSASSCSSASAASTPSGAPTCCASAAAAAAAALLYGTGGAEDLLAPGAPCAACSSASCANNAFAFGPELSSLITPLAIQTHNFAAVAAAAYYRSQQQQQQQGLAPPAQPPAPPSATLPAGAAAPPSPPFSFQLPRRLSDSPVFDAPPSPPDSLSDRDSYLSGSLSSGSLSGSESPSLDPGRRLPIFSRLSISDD
Kind of assay: affinity purification with mass spectrometry; Flag-ZFP36L2 in HeLa cells arrested at G1/S, S, G2 or M phase; anti-Flag M2-agarose 1 h, lysis buffer 20 mM HEPES pH 7.5, 150 mM NaCl, 0.5% digitonin; elution with Flag peptide; LC/MS/MS; Flag empty vector as negative control.

As to “cytoplasmic RNA-binding protein SYNCRIP (from UniProt O60506 1-623)”, the binding entry is reported as “binds”.

Regarding “KH domain protein hnRNP-K (from UniProt P61978 1-463)”, the binding entry is “binds”.

B1: PRPSAP1 (protein, UniProt Q14558 1-356)
chain: MNAARTGYRVFSANSTAACTELAKRITERLGAELGKSVVYQETNGETRVEIKESVRGQDIFIIQTIPRDVNTAVMELLIMAYALKTACARNIIGVIPYFPYSKQSKMRKRGSIVCKLLASMLAKAGLTHIITMDLHQKEIQGFFSFPVDNLRASPFLLQYIQEEIPNYRNAVIVAKSPDAAKRAQSYAERLRLGLAVIHGEAQCTELDMDDGRHSPPMVKNATVHPGLELPLMMAKEKPPITVVGDVGGRIAIIVDDIIDDVESFVAAAEILKERGAYKIYVMATHGILSAEAPRLIEESSVDEVVVTNTVPHEVQKLQCPKIKTVDISLILSEAIRRIHNGESMAYLFRNITVDD
For the molecule B1, the binding result is recorded as “binds”.

B2: phospho-specific adaptor protein YWHAH (14-3-3η) (protein, UniProt Q04917 1-246)
chain: MGDREQLLQRARLAEQAERYDDMASAMKAVTELNEPLSNEDRNLLSVAYKNVVGARRSSWRVISSIEQKTMADGNEKKLEKVKAYREKIEKELETVCNDVLSLLDKFLIKNCNDFQYESKVFYLKMKGDYYRYLAEVASGEKKNSVVEASEAAYKEAFEISKEQMQPTHPIRLGLALNFSVFYYEIQNAPEQACLLAKQAFDDAIAELDTLNEDSYKDSTLIMQLLRDNLTLWTSDQQDEEAGEGN
Turning to B2, the binding result was “binds”.

B3: PRPSAP2 (protein, UniProt O60256 1-369)
chain: MFCVTPPELETKMNITKGGLVLFSANSNSSCMELSKKIAERLGVEMGKVQVYQEPNRETRVQIQESVRGKDVFIIQTVSKDVNTTIMELLIMVYACKTSCAKSIIGVIPYFPYSKQCKMRKRGSIVSKLLASMMCKAGLTHLITMDLHQKEIQGFFNIPVDNLRASPFLLQYIQEEIPDYRNAVIVAKSPASAKRAQSFAERLRLGIAVIHGEAQDAESDLVDGRHSPPMVRSVAAIHPSLEIPMLIPKEKPPITVVGDVGGRIAIIVDDIIDDVDSFLAAAETLKERGAYKIFVMATHGLLSSDAPRRIEESAIDEVVVTNTIPHEVQKLQCPKIKTVDISMILSEAIRRIHNGESMSYLFRNIGLDD
In the case of B3, the binding result is listed as “binds”.
